Test results as given in article PMC7819943, “Rice protein-binding microarrays: a tool to detect cis-acting elements near promoter regions in rice”.
The list shows a part of the results.

Amino acid sequences for entries named in this document (tags omitted).
UniProt Q0JBA9, entry or part of it: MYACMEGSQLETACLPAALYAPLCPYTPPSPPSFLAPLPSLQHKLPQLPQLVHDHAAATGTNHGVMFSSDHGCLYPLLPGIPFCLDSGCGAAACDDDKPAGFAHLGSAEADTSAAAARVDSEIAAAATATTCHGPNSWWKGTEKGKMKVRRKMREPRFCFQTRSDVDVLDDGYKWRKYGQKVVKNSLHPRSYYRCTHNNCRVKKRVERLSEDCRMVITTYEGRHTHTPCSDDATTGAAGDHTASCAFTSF

The sequences below were run against OsWRKY34 (Oryza sativa, UniProt Q0JBA9 1-250) (assay: protein-binding microarray (RPBM); PBS, 2% BSA, 51.3 ng/ul salmon testes DNA, 50 uM zinc acetate, 200 nM TF, 25 C, 1 h; high values mean tight binding). Settings: protein: recombinant; tags: N-terminal polyhistidine and DsRed monomer fusion (pET32a); label: CyDye5-dUTP incorporated in the synthesized complementary strand; 3' TTTTT single-stranded linker to array surface; dsDNA, one strand shown.
How it was run: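 Binding signal is reported as fluorescence intensity per feature (arbitrary units) from an Axon 4000B scanner. Incubation used 200 nM of each Ni–NTA-purified, N-terminally polyhistidine- and DsRed-fused transcription factor from E. coli BL21-CodonPlus on a double-stranded custom Agilent array for 1 h at 25 °C, with 50 µM zinc acetate in the buffer, followed by washing.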
“TTTTCCTATTCCTTTGTTTTTTCATTCCTGTGATTCAAATCGGAGTCACCTAGTGCAG” was tested, and the binding signal was 11800 fluorescence intensity (a.u.).
With “AGCCTCGACTACTGCTTTGACCTTCTCCTTCCCGGCGTCGCGGAGTCACCTAGTGCAG” the binding signal was 8120 fluorescence intensity (a.u.).
With “CGCTCCTCGCGGCCGCCGCCGCCGCCTCCCTCCTCGCCTTCGGAGTCACCTAGTGCAG” the binding signal was 8660 fluorescence intensity (a.u.).
With “GCATCTTACTAGCATGCGTTTGCACTCACCAAGGCACTGACGGAGTCACCTAGTGCAG” the binding signal was 8150 fluorescence intensity (a.u.).
“CCCCATCAACCTCCTCTTCTTCTTCGCCTCGTCTCGTCTTCGGAGTCACCTAGTGCAG” was tested, and the binding signal was 9670 fluorescence intensity (a.u.).
In the case of “AGCAGCCGATCCCATCACACGCACACTGACACACAGTCACCGGAGTCACCTAGTGCAG”, the binding signal is reported as 8190 fluorescence intensity (a.u.).
For “GGGTTCTCCTCCGAGGCGCCACACGTCATGCTTCTCCTCTCGGAGTCACCTAGTGCAG”, the binding signal was 8620 fluorescence intensity (a.u.).
In the case of “GAAACTTCATTTAGATATCGCTTTTCCTGCTTGGTTCGTTCGGAGTCACCTAGTGCAG”, the binding signal is reported as 12700 fluorescence intensity (a.u.).
In the case of “GGGGCATATTTTGCATGATTTTAAACATTGAAGGGGTAGACGGAGTCACCTAGTGCAG”, the binding signal is reported as 15100 fluorescence intensity (a.u.).
In the case of “TCTTGATCACTTGCTACCTCACTACTGCGATTTGCCAACACGGAGTCACCTAGTGCAG”, the binding signal is reported as 10500 fluorescence intensity (a.u.).
With “TACGTTAGGTTGTGTTCCATCCTTATTTTATTTTTTTTATCGGAGTCACCTAGTGCAG” the binding signal was 10100 fluorescence intensity (a.u.).
“TCCCACATGCTGAGTCAGCTCGTCAACCGGGTCAATGACGCGGAGTCACCTAGTGCAG” was tested, and the binding signal was 9090 fluorescence intensity (a.u.).
In the case of “GTGCCCTCTTCCAATCCCGCCACTGAAACAGGCCCGCGGCCGGAGTCACCTAGTGCAG”, the binding signal is reported as 9950 fluorescence intensity (a.u.).
In the case of “GTTTGTTTTCCTGTGGAATGGATGGCCAAGGAAATTTTCCCGGAGTCACCTAGTGCAG”, the binding signal is reported as 9520 fluorescence intensity (a.u.).
With “ACTCGAGCCCACTCCAACTCCACTCCACTACGCCGATCGTCGGAGTCACCTAGTGCAG” the binding signal was 9170 fluorescence intensity (a.u.).
“ACACAACTTGTTAATTTGACCTGTAGCCCCATCATGTACACGGAGTCACCTAGTGCAG” was tested, and the binding signal was 8270 fluorescence intensity (a.u.).
In the case of “ATTTTCAGTTTACTAATGTATGTCTAGTAAAGTTGTTGACCGGAGTCACCTAGTGCAG”, the binding signal is reported as 8620 fluorescence intensity (a.u.).
For “CATGTTGGTTGCTTGCTTGCTACTAGTAGCTGCCGCTCACCGGAGTCACCTAGTGCAG”, the binding signal was 9340 fluorescence intensity (a.u.).
In the case of “CGTCGATGCCAATACAATAACCATCATCATCATCATCATTCGGAGTCACCTAGTGCAG”, the binding signal is reported as 8210 fluorescence intensity (a.u.).
For “CATCGAAGAATTGAAAATGTGGTTTGGGGTGGTTTATTGTCGGAGTCACCTAGTGCAG”, the binding signal was 12000 fluorescence intensity (a.u.).
“CTTTTTAATTTTCTATCCTTTTTGCACATCTATATACTACCGGAGTCACCTAGTGCAG” was tested, and the binding signal was 10200 fluorescence intensity (a.u.).
With “TGTGAGATTCTATGCGTGTTCGTTGCCTGTTCATAGTCCACGGAGTCACCTAGTGCAG” the binding signal was 8420 fluorescence intensity (a.u.).
With “TTTTTCACCATTTTACCACTACTGCTGCCTCACGCAGTCACGGAGTCACCTAGTGCAG” the binding signal was 8080 fluorescence intensity (a.u.).
For “CAAACTCGCATCGTTTCCATTCCCGCCATTCCAACAAACTCGGAGTCACCTAGTGCAG”, the binding signal was 11300 fluorescence intensity (a.u.).
With “TCCGTCCATCCTCACTATCATTAGTACTACTGGTTCTTCTCGGAGTCACCTAGTGCAG” the binding signal was 12200 fluorescence intensity (a.u.).
“TTTATTCTCTGTTCCTCTTTTTTTCATATTCGTTTTTCACCGGAGTCACCTAGTGCAG” was tested, and the binding signal was 13200 fluorescence intensity (a.u.).
“AATCTCTTATTATTCTCGCCATGTTTAGTTCCAAAGTTTTCGGAGTCACCTAGTGCAG” was tested, and the binding signal was 14100 fluorescence intensity (a.u.).
In the case of “CGATTCCGCAAGGCGCCGGCAACTCAACCCCAGCCAGATCCGGAGTCACCTAGTGCAG”, the binding signal is reported as 9100 fluorescence intensity (a.u.).
“CAGGACCAGACCATCAGCGCCACATCCCGACACGAAACCGCGGAGTCACCTAGTGCAG” was tested, and the binding signal was 8490 fluorescence intensity (a.u.).
For “GATAGGGTTAGGGATGGATAGGGTTTCCTTGAGGGTAGTTCGGAGTCACCTAGTGCAG”, the binding signal was 16400 fluorescence intensity (a.u.).
For “AGTACCATTTGTTTCGCTGTGGATTTTATTTTATTATTAACGGAGTCACCTAGTGCAG”, the binding signal was 8530 fluorescence intensity (a.u.).
For “ATGATAGAGCTTGTTTCCGACCGTATTCGATTCGTTTTCACGGAGTCACCTAGTGCAG”, the binding signal was 8690 fluorescence intensity (a.u.).
In the case of “AGGGCGTGTGTTTCGCGTGGGTTTCGTGGTGGTTGCTGGGCGGAGTCACCTAGTGCAG”, the binding signal is reported as 10900 fluorescence intensity (a.u.).
With “GGTGATTTTAGCTGACGTAGCGCCTATATGTATGTTTTGACGGAGTCACCTAGTGCAG” the binding signal was 8140 fluorescence intensity (a.u.).
“AAGCTTTTTTTTTCTACATCTGAGACGTTCGCCGGAGATGCGGAGTCACCTAGTGCAG” was tested, and the binding signal was 8700 fluorescence intensity (a.u.).
In the case of “AAATTCAAACTAGTTTCTACATAGCCTCTTTTCTCTATTTCGGAGTCACCTAGTGCAG”, the binding signal is reported as 10900 fluorescence intensity (a.u.).
For “ACTTATTCTGGGGCGGAGGCTAGAGGGTGTAGTGTAGGACCGGAGTCACCTAGTGCAG”, the binding signal was 13100 fluorescence intensity (a.u.).
With “TATTTCTAAATTGTATTTCTATATGGACTTTATTTTTCTTCGGAGTCACCTAGTGCAG” the binding signal was 8830 fluorescence intensity (a.u.).
For “TAATTTGCATCGTCCGTTTGGTCTTGAGCGACGTCGCCAACGGAGTCACCTAGTGCAG”, the binding signal was 11000 fluorescence intensity (a.u.).
In the case of “GTAGCTTCTTCTGGCTTTTCTTCAGCAGCTCACGTAACCACGGAGTCACCTAGTGCAG”, the binding signal is reported as 12400 fluorescence intensity (a.u.).
“TTTGCTTTGTTGGAAAATATTCTCGTTTCCAATGTCCTTTCGGAGTCACCTAGTGCAG” was tested, and the binding signal was 8090 fluorescence intensity (a.u.).
“TTTGTCCGTTTGAGTTTATTTTTTATACGGTTGGTTCCTACGGAGTCACCTAGTGCAG” was tested, and the binding signal was 12300 fluorescence intensity (a.u.).
